# Test results taken from patent US20210388331A1 (NEURO BIO, published 2021).
# Sequences of proteins named here, by UniProt entry; tags and fusion partners are left off. Residues count along the entry.
# UniProt Q05941, residues 23-502: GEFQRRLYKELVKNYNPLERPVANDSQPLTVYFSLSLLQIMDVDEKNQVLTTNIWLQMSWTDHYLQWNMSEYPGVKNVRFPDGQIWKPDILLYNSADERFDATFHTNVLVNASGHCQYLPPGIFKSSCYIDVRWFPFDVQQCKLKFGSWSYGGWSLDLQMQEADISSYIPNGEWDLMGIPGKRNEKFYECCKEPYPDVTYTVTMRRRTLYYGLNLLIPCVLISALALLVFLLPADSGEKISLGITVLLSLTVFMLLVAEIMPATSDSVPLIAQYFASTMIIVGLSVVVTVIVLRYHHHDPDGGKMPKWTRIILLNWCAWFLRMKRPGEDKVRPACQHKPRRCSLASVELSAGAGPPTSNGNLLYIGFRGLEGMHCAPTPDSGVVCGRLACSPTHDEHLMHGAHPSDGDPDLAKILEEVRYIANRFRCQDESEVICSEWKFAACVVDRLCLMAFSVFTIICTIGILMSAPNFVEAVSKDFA
# These are yes or no findings as the source states them, for the method shown. Some binding calls cover weakened binding; strength is not graded here.
# How the values were obtained:
# [1] = target: α7 nicotinic acetylcholine receptor (in PC12 cells / PC12 cell membranes) (UniProt Q05941); assay: [3H] ivermectin displacement, PC12 cell membranes
# [2] = target: α7 nicotinic acetylcholine receptor (in PC12 cells / PC12 cell membranes) (UniProt Q05941); assay: [3H] ivermectin displacement, PC12 cell membranes (FIG. 6)
binding [1],binding [2],Binder
binds,binds,"KAEFHRWSSYMVHWKNQFDHYSKQDRCSDL [T30 (AChE C-terminal peptide, linear)]"
binds,binds,"AEFHRWSSYMVHWK (also called linear T14) [T14 (AChE C-terminal peptide, linear)]"
